Paper PMC5558740

The chains behind the UniProt entries cited, without tags or fusion partners. Where a name states a change or a piece, a line headed by the entry shows the natural chain unless it says otherwise.
UniProt P78423: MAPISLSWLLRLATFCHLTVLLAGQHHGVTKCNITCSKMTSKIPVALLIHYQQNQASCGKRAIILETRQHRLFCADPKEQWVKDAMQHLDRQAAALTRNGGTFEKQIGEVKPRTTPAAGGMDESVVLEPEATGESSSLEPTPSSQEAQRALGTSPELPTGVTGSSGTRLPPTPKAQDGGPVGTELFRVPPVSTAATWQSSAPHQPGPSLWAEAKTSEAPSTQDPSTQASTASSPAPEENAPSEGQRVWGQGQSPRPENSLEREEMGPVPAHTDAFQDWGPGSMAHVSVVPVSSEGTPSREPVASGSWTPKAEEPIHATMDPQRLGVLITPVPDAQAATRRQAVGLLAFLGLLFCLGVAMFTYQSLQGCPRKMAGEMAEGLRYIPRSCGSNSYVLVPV

Target: T1, synthetic CX3CR1 peptide (aa 2-21) containing the binding region to CX3CL1
T1 sequence (peptide): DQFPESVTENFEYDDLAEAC
Assay: affinity chromatography; CX3CR1 peptide coupled to CNBr-activated Sepharose 4B; protein (1 mg/ml) loaded in buffer A (0.1 M Mes pH 6.4, 0.5 mM MgCl2, 2 mM EGTA); bound protein eluted with 0.5 M NaCl in buffer A; fractions read by dot immunoblot; both purified

binding: binds
Substance: Full-length CX3CL1 peptide (from UniProt P78423) (ligand)

No constants are given. Whether binding was seen depends on the method and setting. A result given as binding can be weak or reduced; the word gives no strength.
